Results as given in patent publication US20160074471A1.

What was measured:
[1] = biological target: GST-HDAC3; assay: GST pull-down from 293T cells transfected with GST-HDAC3 and Flag-sLZIP, immunoblot (FIG. 4E)
[2] = biological target: GST-HDAC3; assay: GST pull-down from 293T cells transfected with GST-HDAC3 and Flag-sLZIP (FIG. 5D); HDAC3 stayed bound to sLZIP after 10 nM RZD
[3] = biological target: GST-HDAC3; assay: conclusion of Example 3 from the GST pull-down (FIG. 4E)
[4] = biological target: GST-HDAC3; assay: GST pull-down
[5] = biological target: GST-PPARγ2; assay: GST pull-down from 293T cells transfected with GST-PPARγ2 and Flag-sLZIP, without RZD (FIG. 5A); dissociated after 10 nM RZD
[6] = biological target: GST-PPARγ2; assay: GST pull-down from 293T cells transfected with GST-PPARγ2 and Flag-sLZIP, immunoblot (FIG. 2B)

binding [1]: binds | binding [2]: binds | binding [3]: binds | binding [4]: binds | binding [5]: binds | binding [6]: binds
B1: Flag-sLZIP (protein, not shown: small tags and cut ends)
chain: MELELDAGDQDLLAFLLEESGDLGTAPDEAVRAPLDWALPLSEVPSDWEVDDLLCSLLSPPASLNILSSSNPCLVHHDHTYSLPRETVSMDLESESCRKEGTQMTPQHMEELAEQEIARLVLTDEEKSLLEKEGLILPETLPLTKTEEQILKRVRRKIRNKRSAQESRRKKKVYVGGLESRVLKYTAQNMELQNKVQLLEEQNLSLLDQLRKLQAMVIEISNKTSSSSMYSSDTRGSLPAEHGVLSRQLRALPSEDPYQLELPALQSEVPKDSTHQWLDGSDCVLQAPGNTSCLLHYMPQAPSAEPPLEWPFPDLFSEPLCRGPILPLQANLTRKGGWLPTGSPSVILQDRYSG

Results are given in words; binding and its absence hold for the method and conditions named. In cells and extracts the contact can be indirect. A result given as binding can be weak or reduced; the word gives no strength. Tags and fused reporters may be left off the sequences shown.
